In publication doi:10.1101/2024.10.07.617013:
No constants are given. Whether binding was seen depends on the method and setting. Some binding calls cover weakened binding; strength is not graded here.

Biological target: Non-POU domain-containing octamer-binding protein (NONO) from Cricetulus griseus (Cricetulus griseus)
Test: cryo-EM structure

- binding: binds
Substance: Non-POU domain-containing octamer-binding protein (NONO) from Cricetulus griseus (from UniProt A0A9J7K1U4 1-472)
